In the assay the test system is Escherichia coli (E. coli) ATCC 25922. As to the kind of experiment: Quantitative antimicrobial assessment (MIC) against E. coli. Format: cell-based. The following applies: ATCC25922, Gram negative.

≈ marks a conversion by molar mass, not a printed value.

Take `O=C(O)c1cn(C2CC2)c2cc(N3CCNCC3)c(F)cc2c1=O` [ciprofloxacin, reference compound]: inhibition of growth (MIC) required 0.0278 µM (≈ 9.21 ng/mL).

The term MIC denotes the least concentration at which growth counts as inhibited. A lower MIC goes with inhibition by little substance.

The record behind these values is publication PMC8325119, “A Novel Class of Functionalized Synthetic Fluoroquinolones with Dual Antiproliferative - Antimicrobial Capacities” (Asian Pacific Journal of Cancer Prevention : APJCP, 2021).
